Literature values, collected in US8492383B2 (Jewish General Hospital, priority 2002, dated 2013).
The name of at least one read-out is uncertain.

Details: patients; after oral administration; cited from earlier work

Structure (SMILES): Cc1ccc(NC(=O)c2ccc(CN3CCN(C)CC3)cc2)cc1Nc1nccc(-c2cccnc2)n1 [Compound I]
- time at which Cmax occurs: 1 to 3 h
